Data from patent US7115635B2, “Benzylpiperidine compound” (Mitsubishi Pharma Corporation, priority 2001, dated 2006).
For at least one compound, name, drawing or mass did not settle the structure.

Biological target: human eosinophil
Experiment: Binding inhibitory activity between chemokine ([125I]-eotaxin) and human eosinophil
Conditions: 50 pmol/L [125I]-eotaxin, human eosinophil 2x10^5, 25 C, 1 hr; read-out: IC50 (concentration necessary for decreasing the binding between [125I]-eotaxin and human eosinophil by 50%)
Description: Human eosinophil was separated from the anticoagulation treated peripheral blood of a healthy subject by CD16 negative selection method (e.g., J. Immunol. Methods, vol., 145, pp. 105–110, 1991). The separated eosinophil (2×10^5), 50 pmol/L [^125I]-eotaxin (2000 Ci/mmoL, manufactured by AmershamPharmacia Biotech) and a test compound were mixed in 0.1 mL of a binding buffer (50 mmol/L HEPES, 1 mmol/L CaCl2, 5 mmol/L MgCl2, 0.5% bovine serum albumin (BSA), 0.1% sodium azide, pH 7.6), and the mixture was incubated at 25° C. for 1 hr in a multiscreen plate (manufactured by Millipore Corporation). After the completion of the incubation, the reaction mixture in the multiscreen plate was filtered in vacuo and washed with 0.6 mL of a cold washing buffer (50 mmol/L HEPES, 1 mmol/L CaCl2, 5 mmol/L MgCl2, 0.5 mol/L NaCl, 0.1% sodium azide, pH 7.6), and the radioactivity on the filter was measured. […] The IC50 values (concentration of a test compound necessary for decreasing the binding between [^125 I]-eotaxin and human eosinophil by 50%) of some of the compounds of the present invention were as follows.

SMILES	IC50 [nM]
N=C(N)Nc1nc(-c2ccc(SCCCC(=O)NC3CCN(Cc4ccc(Cl)c(Cl)c4)CC3)cc2)cs1 [Example 2, N-[1-(3,4-dichlorobenzyl)piperidin-4-yl]-4-[4-(2-guanidinothiazol-4-yl)phenylthio]butylamide]	4
CN=c1scc(-c2ccc(OCCCC(=O)NC3CCN(Cc4ccc(Cl)c(Cl)c4)CC3)cc2)n1C [Example 18, N-[1-(3,4-dichlorobenzyl)piperidin-4-yl]-4-[4-(3-methyl-2-methylimino-4-thiazolin-4-yl)phenyloxy]butylamide]	41
